Test results as given in the supplement of paper PMC12819154, “High-throughput peptide-centric local stability assay extends protein–ligand identification to membrane proteins, tissues and bacteria” (Nature Structural & Molecular Biology, 2025).
This is one part of the list. Most entries show no effect beyond the scatter of the controls.

By UniProt entry, the sequences of proteins in these tests, tags left out. Where a name states a change or a piece, a line headed by the entry shows the natural chain unless it says otherwise.
UniProt Q96F44: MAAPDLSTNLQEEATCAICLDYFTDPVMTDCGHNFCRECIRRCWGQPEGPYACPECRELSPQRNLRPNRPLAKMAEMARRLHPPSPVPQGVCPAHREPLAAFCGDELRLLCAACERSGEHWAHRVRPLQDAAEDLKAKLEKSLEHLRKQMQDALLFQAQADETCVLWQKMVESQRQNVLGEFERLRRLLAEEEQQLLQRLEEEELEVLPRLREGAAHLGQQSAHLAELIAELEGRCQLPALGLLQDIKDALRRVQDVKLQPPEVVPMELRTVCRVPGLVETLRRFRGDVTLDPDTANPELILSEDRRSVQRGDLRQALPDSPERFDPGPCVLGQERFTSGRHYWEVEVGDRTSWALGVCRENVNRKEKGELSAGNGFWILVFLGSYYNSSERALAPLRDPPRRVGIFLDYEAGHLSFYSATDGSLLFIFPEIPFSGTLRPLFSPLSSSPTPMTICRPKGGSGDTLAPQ
UniProt Q96IJ6: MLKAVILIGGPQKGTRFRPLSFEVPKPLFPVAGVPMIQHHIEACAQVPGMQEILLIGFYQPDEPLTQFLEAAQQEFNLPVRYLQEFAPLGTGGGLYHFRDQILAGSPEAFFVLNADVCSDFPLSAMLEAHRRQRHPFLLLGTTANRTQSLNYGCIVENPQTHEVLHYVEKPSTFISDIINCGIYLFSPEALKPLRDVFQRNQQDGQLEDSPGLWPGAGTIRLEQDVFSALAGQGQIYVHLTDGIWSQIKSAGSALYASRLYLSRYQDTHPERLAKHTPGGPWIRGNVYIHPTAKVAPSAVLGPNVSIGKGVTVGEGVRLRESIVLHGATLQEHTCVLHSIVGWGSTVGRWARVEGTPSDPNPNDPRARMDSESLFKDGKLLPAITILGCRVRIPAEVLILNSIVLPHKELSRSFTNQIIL
UniProt Q96IY1: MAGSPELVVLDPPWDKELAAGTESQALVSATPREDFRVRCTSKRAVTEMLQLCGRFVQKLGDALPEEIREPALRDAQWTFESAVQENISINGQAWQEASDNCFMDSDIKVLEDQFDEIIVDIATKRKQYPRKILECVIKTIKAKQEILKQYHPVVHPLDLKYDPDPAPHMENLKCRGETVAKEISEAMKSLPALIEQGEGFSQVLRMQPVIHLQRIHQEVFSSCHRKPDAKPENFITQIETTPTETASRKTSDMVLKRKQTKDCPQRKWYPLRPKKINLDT
UniProt Q96PV7: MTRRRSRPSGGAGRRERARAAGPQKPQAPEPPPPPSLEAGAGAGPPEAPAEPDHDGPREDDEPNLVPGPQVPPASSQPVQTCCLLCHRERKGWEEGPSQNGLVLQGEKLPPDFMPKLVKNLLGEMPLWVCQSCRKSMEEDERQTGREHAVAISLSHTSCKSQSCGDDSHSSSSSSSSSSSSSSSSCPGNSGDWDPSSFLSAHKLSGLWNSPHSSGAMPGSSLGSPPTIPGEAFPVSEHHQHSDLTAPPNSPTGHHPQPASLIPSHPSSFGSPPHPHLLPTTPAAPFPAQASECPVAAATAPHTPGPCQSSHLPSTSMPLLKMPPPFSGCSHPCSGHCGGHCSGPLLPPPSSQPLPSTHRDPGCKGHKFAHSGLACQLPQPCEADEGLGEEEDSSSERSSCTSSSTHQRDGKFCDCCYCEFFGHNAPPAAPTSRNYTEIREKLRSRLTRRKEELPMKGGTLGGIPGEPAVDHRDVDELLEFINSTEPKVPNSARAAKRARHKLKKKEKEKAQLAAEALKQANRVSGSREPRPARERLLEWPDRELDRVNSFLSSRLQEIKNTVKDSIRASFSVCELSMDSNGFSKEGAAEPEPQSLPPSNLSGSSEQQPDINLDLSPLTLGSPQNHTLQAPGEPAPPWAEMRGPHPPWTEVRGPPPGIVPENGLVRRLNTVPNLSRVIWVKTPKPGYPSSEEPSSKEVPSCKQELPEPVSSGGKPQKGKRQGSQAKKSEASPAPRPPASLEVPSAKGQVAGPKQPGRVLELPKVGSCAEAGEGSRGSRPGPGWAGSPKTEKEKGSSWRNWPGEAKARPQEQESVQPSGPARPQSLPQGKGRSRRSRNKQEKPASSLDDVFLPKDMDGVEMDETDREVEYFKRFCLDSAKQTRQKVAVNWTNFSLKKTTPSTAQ
UniProt Q96FF7: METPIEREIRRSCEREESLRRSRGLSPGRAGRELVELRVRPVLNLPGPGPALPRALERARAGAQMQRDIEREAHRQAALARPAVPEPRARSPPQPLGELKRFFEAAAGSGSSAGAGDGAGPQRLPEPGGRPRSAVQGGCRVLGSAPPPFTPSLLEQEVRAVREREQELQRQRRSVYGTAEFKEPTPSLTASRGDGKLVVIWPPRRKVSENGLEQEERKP
UniProt Q96N46: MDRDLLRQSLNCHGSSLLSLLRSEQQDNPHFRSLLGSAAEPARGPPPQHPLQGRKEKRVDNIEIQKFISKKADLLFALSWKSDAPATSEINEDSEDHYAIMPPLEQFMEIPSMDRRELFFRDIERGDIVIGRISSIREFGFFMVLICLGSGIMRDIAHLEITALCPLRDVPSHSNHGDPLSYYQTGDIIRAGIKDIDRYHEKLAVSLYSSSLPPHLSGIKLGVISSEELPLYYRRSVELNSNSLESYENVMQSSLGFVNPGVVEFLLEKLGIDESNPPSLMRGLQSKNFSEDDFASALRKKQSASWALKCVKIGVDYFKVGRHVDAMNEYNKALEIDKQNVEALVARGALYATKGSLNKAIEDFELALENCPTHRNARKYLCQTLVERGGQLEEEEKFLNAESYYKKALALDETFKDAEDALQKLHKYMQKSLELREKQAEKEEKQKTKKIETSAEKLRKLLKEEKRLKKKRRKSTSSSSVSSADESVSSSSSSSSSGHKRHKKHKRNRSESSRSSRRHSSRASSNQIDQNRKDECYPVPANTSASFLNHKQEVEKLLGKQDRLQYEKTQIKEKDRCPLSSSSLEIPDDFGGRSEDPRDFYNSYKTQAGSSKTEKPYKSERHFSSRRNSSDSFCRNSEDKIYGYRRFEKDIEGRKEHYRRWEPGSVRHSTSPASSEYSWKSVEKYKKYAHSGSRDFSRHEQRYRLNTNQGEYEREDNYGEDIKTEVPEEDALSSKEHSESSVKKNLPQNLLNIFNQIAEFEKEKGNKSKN
UniProt Q96RU3: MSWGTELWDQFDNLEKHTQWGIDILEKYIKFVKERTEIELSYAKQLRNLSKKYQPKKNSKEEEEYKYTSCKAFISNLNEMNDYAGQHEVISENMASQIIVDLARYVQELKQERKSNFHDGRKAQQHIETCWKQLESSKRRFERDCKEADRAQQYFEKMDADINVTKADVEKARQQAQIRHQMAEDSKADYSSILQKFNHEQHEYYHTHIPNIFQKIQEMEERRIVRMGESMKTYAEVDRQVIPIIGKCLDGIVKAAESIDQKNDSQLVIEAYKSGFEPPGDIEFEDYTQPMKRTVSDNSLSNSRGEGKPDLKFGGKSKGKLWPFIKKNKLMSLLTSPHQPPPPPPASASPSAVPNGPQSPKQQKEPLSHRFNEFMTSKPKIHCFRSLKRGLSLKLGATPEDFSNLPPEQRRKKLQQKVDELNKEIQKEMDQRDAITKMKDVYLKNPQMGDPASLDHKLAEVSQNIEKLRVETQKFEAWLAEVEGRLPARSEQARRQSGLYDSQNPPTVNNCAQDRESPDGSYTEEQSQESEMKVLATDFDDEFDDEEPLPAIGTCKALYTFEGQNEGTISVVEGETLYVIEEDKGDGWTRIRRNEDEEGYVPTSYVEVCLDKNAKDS
UniProt Q96HM7: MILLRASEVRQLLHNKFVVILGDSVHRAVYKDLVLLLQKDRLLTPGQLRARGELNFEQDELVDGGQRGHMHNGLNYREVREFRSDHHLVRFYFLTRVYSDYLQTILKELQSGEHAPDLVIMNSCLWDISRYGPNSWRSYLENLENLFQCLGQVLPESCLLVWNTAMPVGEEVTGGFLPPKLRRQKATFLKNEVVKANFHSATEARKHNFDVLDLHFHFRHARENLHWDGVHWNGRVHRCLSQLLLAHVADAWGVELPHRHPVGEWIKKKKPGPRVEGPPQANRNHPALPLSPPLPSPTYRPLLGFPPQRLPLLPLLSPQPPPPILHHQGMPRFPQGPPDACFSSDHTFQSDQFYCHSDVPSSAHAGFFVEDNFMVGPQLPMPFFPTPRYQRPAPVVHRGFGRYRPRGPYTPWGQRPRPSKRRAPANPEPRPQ
UniProt Q96QZ7: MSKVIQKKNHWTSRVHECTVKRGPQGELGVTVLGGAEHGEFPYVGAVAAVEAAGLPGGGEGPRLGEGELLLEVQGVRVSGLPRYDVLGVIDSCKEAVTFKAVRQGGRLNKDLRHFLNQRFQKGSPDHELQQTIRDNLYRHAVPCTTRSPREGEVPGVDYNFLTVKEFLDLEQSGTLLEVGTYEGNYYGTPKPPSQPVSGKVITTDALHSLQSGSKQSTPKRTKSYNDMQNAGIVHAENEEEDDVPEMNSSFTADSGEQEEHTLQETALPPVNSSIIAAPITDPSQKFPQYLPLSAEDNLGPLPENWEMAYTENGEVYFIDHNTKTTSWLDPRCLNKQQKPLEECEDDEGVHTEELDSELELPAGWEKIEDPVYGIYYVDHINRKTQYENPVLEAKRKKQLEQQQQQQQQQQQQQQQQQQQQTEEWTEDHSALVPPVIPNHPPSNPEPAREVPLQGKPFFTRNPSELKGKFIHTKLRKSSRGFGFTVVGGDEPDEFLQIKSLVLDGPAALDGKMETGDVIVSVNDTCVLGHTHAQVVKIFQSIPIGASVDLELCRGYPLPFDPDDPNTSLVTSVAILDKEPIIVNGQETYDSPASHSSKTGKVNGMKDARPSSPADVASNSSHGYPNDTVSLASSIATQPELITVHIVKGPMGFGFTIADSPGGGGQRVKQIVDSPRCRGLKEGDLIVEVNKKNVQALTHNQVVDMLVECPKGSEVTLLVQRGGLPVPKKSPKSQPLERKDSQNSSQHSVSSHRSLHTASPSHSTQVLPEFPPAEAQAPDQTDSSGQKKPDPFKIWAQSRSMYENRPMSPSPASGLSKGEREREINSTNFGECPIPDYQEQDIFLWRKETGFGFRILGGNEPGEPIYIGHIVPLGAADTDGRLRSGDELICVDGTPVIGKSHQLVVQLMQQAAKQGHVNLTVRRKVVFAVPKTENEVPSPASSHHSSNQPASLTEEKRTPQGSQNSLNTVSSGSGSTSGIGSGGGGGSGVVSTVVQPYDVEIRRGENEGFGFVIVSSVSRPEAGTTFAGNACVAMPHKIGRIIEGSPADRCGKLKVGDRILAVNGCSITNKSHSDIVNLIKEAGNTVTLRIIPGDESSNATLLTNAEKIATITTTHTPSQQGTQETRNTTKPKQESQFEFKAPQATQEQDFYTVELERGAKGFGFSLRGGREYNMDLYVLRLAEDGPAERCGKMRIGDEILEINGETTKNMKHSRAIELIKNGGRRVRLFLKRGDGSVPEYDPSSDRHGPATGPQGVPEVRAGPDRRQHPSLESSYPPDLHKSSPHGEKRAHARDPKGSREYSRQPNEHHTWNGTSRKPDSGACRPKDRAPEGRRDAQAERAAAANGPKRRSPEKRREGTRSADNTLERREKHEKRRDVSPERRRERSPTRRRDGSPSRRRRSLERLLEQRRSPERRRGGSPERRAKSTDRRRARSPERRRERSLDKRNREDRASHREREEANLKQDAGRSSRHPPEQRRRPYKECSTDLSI
UniProt Q96GU1: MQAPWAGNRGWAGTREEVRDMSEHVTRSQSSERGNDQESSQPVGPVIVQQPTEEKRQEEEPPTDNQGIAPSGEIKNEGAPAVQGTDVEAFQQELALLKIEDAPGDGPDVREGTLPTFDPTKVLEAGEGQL
UniProt Q96KA5: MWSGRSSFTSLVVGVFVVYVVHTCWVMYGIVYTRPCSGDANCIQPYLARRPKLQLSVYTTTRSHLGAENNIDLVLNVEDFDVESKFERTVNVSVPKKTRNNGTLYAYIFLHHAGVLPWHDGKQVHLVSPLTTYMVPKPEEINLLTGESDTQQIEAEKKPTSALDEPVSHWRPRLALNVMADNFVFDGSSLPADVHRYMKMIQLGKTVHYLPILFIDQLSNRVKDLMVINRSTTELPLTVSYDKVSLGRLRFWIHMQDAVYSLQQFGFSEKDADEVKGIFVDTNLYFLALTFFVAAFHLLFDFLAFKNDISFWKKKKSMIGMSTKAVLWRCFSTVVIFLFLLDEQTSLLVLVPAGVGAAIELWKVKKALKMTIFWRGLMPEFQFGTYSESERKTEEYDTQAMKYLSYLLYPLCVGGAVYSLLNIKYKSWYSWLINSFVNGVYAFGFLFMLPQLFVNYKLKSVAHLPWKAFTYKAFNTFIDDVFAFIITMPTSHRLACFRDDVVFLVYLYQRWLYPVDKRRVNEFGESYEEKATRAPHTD
UniProt Q96MD7: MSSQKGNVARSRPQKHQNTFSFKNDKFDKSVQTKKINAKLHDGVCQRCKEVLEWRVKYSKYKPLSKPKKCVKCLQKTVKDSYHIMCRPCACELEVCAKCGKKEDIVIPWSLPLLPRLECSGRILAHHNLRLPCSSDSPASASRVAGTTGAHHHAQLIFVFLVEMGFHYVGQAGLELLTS

These targets were tested with Cc1nc(Nc2ncc(C(=O)Nc3c(C)cccc3Cl)s2)cc(N2CCN(CCO)CC2)n1 [dasatinib] (assay: log2 fold change of tryptic peptide abundance, ligand vs vehicle (limited proteolysis) (log2 ratio); higher = more trypsin-susceptible (destabilized)). Details: ligand concentration: 5 uM; sample: K562 cleared lysate.

| Target | log2 fold change |
| --- | --- |
| TRIM11 (peptide sequence: VRPLQDAAEDLK, peptide start residue: 125) (UniProt Q96F44) | -0.312 |
| UniProt Q96MD2 (peptide sequence: HLFGGQSQK, peptide start residue: 239) | -0.214 |
| DDX27 (peptide sequence: TFTDHVMLFTQTKK, peptide start residue: 461) (UniProt Q96GQ7) | -0.417 |
| UHRF2 (peptide sequence: MPSASTESR, peptide start residue: 415) (UniProt Q96PU4) | -0.109 |
| UniProt Q96KC2 (peptide sequence: AAVLIFANK, peptide start residue: 118) | -0.282 |
| GMPPA (peptide sequence: LLPAITILGCRVR, peptide start residue: 380) (UniProt Q96IJ6) | -0.212 |
| DUS3L (peptide sequence: RHQCEDIFGVQLEGAFPDTMTK, peptide start residue: 355) (UniProt Q96G46) | 0.228 |
| UIMC1 (peptide sequence: KAIAESLNSCRPSDASATR, peptide start residue: 112) (UniProt Q96RL1) | 0.393 |
| ZNF385A (peptide sequence: TFHCEICNVK, peptide start residue: 260) (UniProt Q96PM9) | -0.155 |
| NSL1 (peptide sequence: KPDAKPENFITQIETTPTETASR, peptide start residue: 227) (UniProt Q96IY1) | 0.264 |
| FAM193B (peptide sequence: GGTLGGIPGEPAVDHR, peptide start residue: 457) (UniProt Q96PV7) | -0.216 |
| EHMT2 (peptide sequence: RTPLHAAAQK, peptide start residue: 686) (UniProt Q96KQ7) | 0.471 |
| UniProt Q96PG8 (peptide sequence: SHPGGPGSPR, peptide start residue: 153) | -0.167 |
| UniProt Q96GD3 (peptide sequence: TVLEHQPGQR, peptide start residue: 264) | 0.0944 |
| MISP3 (peptide sequence: EREQELQR, peptide start residue: 163) (UniProt Q96FF7) | -0.0718 |
| UniProt Q96RT6 (peptide sequence: EATEAQSLEATCEKLNR, peptide start residue: 728) | 0.232 |
| TTC14 (peptide sequence: HVDAMNEYNK, peptide start residue: 323) (UniProt Q96N46) | -0.504 |
| EXOC2 (peptide sequence: LEICALR, peptide start residue: 856) (UniProt Q96KP1) | -0.263 |
| SMARCD1 (peptide sequence: LLEDSALSKYDATK, peptide start residue: 215) (UniProt Q96GM5) | -0.583 |

| Target | log2 fold change |
| --- | --- |
| EGLN2 (peptide sequence: LAAQGARPEAPK, peptide start residue: 107) (UniProt Q96KS0) | 0.189 |
| FNBP1 (peptide sequence: QQKEPLSHR, peptide start residue: 362) (UniProt Q96RU3) | 0.201 |
| UniProt Q96HM7 (peptide sequence: GHMHNGLNYR, peptide start residue: 68) | 0.442 |
| IPO9 (peptide sequence: IHEACMLALGSVK, peptide start residue: 446) (UniProt Q96P70) | -0.185 |
| UniProt Q96P71 (peptide sequence: SSTWSPGSSDTGR, peptide start residue: 204) | -0.476 |
| POM121 (peptide sequence: KVQLLPSR, peptide start residue: 507) (UniProt Q96HA1) | -0.167 |
| UniProt Q96NG3 (peptide sequence: GDLSFLSK, peptide start residue: 143) | -0.215 |
| SCYL1 (peptide sequence: EKWSADMWR, peptide start residue: 199) (UniProt Q96KG9) | 0.112 |
| UniProt Q96K17 (peptide sequence: LAEQFPR, peptide start residue: 116) | -0.0467 |
| RPS6KC1 (peptide sequence: SFPAHLAADSDSPSTQLR, peptide start residue: 549) (UniProt Q96S38) | 0.232 |
| APIP (peptide sequence: QFYHLGWVTGTGGGISLK, peptide start residue: 34) (UniProt Q96GX9) | 0.281 |
| MAGI1 (peptide sequence: SSPHGEKR, peptide start residue: 1282) (UniProt Q96QZ7) | -0.484 |
| UniProt Q96HE7 (peptide sequence: FDGILTEGEGPRR, peptide start residue: 288) | -0.192 |
| THOC3 (peptide sequence: RPLLAFACDDKDGK, peptide start residue: 319) (UniProt Q96J01) | 0.318 |
| BBS4 (peptide sequence: AAIEVYNEAAK, peptide start residue: 119) (UniProt Q96RK4) | 0.209 |
| PAGE5 (peptide sequence: IEDAPGDGPDVR, peptide start residue: 99) (UniProt Q96GU1) | 0.0715 |
| CLPTM1L (peptide sequence: VNEFGESYEEK, peptide start residue: 520) (UniProt Q96KA5) | -0.0177 |
| ZNF512B (peptide sequence: KVPAAPITVSK, peptide start residue: 472) (UniProt Q96KM6) | -0.461 |
| C9orf85 (peptide sequence: LHDGVCQR, peptide start residue: 40) (UniProt Q96MD7) | 0.132 |

Quoted from the listing:
For log2 fold change, IPO9 (peptide sequence: IHEACMLALGSVK, peptide start residue: 446) (UniProt Q96P70) is entered as -0.185
For log2 fold change, THOC3 (peptide sequence: RPLLAFACDDKDGK, peptide start residue: 319) (UniProt Q96J01) is entered as 0.318
